Laboratory results reported in patent publication US9260461B2, “Water-soluble derivatives and prodrugs of acacetin and methods of making and using thereof” (Versitech Limited, priority 2014, dated 2016).
For at least one compound, name, drawing or mass did not settle the structure.

Tested on: thioredoxin (Trx)
Assay: Western blot, ischemia/reperfused myocardium: Trx
Parameters: species or system rat
Conditions: concentration-dependent

Compound: COc1ccc(-c2cc(=O)c3c(O)cc(O)cc3o2)cc1 [acacetin]
- mean relative level of Trx: upregulated
